{
  "source": "PubChem BioAssay AID540276",
  "about": "(National Center for Advancing Translational Sciences (NCATS), 2011)",
  "note": "Out of some 300,000 compounds screened, about 5,400 (1.8%) were called active. The inconclusive results got no clear call from the source; some entries with a clear call stand among them for comparison. The call rests on the fitted dose curve; tested in HEK293 cells. Where the call is inconclusive, the potency comes from a doubtful curve fit. On the % scale 0 is the no-effect control and ±100 the full control effect; potency means the concentration at half of the fitted maximal effect.",
  "data": [
    {"assay": "qHTS for inhibitors of binding or entry into cells for Marburg Virus", "conditions": "Marburg virus pseudotyped entry inhibition, cell reporter; activity change, negative = inhibition: at 37.8 µM (top of the series) unless noted", "values": [
      {"smiles": "C/C(=N/NC(=O)Cc1c(C)[nH][nH]c1=O)c1ccc(O)cc1", "activity change, negative = inhibition": "inactive: 3.35%"},
      {"smiles": "CC(C)(C)C1CCC(OCC(O)CN2CCN(c3ccccn3)CC2)CC1", "note": "(stereo unspecified)", "Potency": "inconclusive: 12.6 µM [inhibitor, single point]"},
      {"smiles": "CCc1ccc(N(C(=O)c2ccco2)C(C(=O)NC2CCCC2)c2cccnc2)cc1", "note": "(stereo unspecified)", "Potency": "inconclusive: 35.5 µM [inhibitor, single point]"},
      {"smiles": "COc1ccc(C(=C(CC(=O)O)C(=O)OC(C)(C)C)c2cc(OC)c(OC)c(OC)c2)cc1OC", "Potency": "inconclusive: 7.94 µM [activator, partial curve, poor fit]"},
      {"smiles": "CC(=O)c1ccc(N2CCN(c3ccccc3O)CC2)c([N+](=O)[O-])c1", "Potency": "inconclusive: 35.5 µM [inhibitor, single point]"},
      {"smiles": "O=C(Nc1cccc(Cl)c1)N1CCN2C(=O)c3ccccc3C12c1ccccc1", "note": "(stereo unspecified)", "Potency": "inconclusive: 35.5 µM [inhibitor, partial curve, poor fit]"},
      {"smiles": "O=C(COC(=O)c1ccc2[nH]c3c(c2c1)CCCC3)NC1CCS(=O)(=O)C1", "note": "(stereo unspecified)", "Potency": "inconclusive: 35.5 µM [inhibitor, single point]"},
      {"smiles": "O=C(NCCN1C(=O)S/C(=C\\c2ccc(OC(F)F)cc2)C1=O)C1=COCCO1", "Potency": "inconclusive: 1.26 µM [inhibitor, single point]"},
      {"smiles": "CCOC(=O)c1sc(NC(=O)CSC(=S)N2CCOCC2)nc1C", "Potency": "inconclusive: 35.5 µM [inhibitor, single point]"},
      {"smiles": "O=C(c1n[nH]c(=O)c2ccccc12)N1CCN(c2ccccc2Cl)CC1", "Potency": "inconclusive: 29.1 µM [inhibitor, single point]"},
      {"smiles": "CC(C)c1onc(C(=O)N2CCCCC2)c1[N+](=O)[O-]", "activity change, negative = inhibition": "inactive: 1.75%"},
      {"smiles": "COc1ccc(CCC(=O)NCC2CCCCC2)cc1OC", "Potency": "inconclusive: 35.5 µM [activator, single point]"},
      {"smiles": "O=C(CSc1nc(-c2cccs2)cc(C(F)(F)F)n1)NCc1ccccc1", "activity change, negative = inhibition": "inactive: -27.8%"},
      {"smiles": "COc1ccc(C2CC(c3ccc(OC)cc3)n3nc(NC(=O)c4cccs4)nc3N2)cc1", "note": "(stereo unspecified)", "Potency": "inconclusive: 23.1 µM [inhibitor, single point]"},
      {"smiles": "CCc1c(C)nc2[nH]ncn2c1=O", "Potency": "inconclusive: 11.2 µM [activator, partial curve, poor fit]"},
      {"smiles": "Cc1[nH]c(=O)[nH]c1CN1CCCCC1", "activity change, negative = inhibition": "inactive: -1.07%"},
      {"smiles": "O=C(CNC(=O)c1ccco1)NCC(=O)OCc1ccc(F)cc1", "activity change, negative = inhibition": "inactive: -3.74% [at 46.1 µM]"},
      {"smiles": "Clc1ccc(-n2ncc3c(NCc4ccccn4)ncnc32)cc1", "activity change, negative = inhibition": "inactive: 3.02%"},
      {"smiles": "COc1cccc(NC(=O)c2ccc(C(=O)c3ccccc3)o2)c1", "Potency": "inconclusive: 5.62 µM [activator, single point]"},
      {"smiles": "CCC(C)C(NC(=O)C1CCC(C)CC1)C(=O)NC(CCSC)C(=O)OC", "note": "(stereo unspecified)", "Potency": "inconclusive: 2.51 µM [inhibitor, full curve, poor fit]"},
      {"smiles": "O=C(Nc1ccccc1Cl)c1c(F)c(F)c(F)c(F)c1F", "Potency": "inconclusive: 0.631 µM [inhibitor, single point]"},
      {"smiles": "O=C(NCc1ccco1)C1CC2CCC1C2", "note": "(stereo unspecified)", "Potency": "inconclusive: 0.146 µM [inhibitor, full curve, poor fit]"},
      {"smiles": "COc1ccc(-c2nn(-c3ccccc3)cc2C#N)cc1", "Potency": "inconclusive: 1.26 µM [activator, single point]"},
      {"smiles": "Cc1cc(-c2ccc([N+](=O)[O-])cc2)cc(C)n1", "Potency": "inconclusive: 0.562 µM [inhibitor, full curve, poor fit]"},
      {"smiles": "COc1ccc(C)cc1NC(=O)CNC(=O)Cn1ccc2ccccc2c1=O", "Potency": "inconclusive: 0.206 µM [activator, partial curve, poor fit]"},
      {"smiles": "CCn1c(SCC(=O)c2[nH]c(C)c(C(C)=O)c2C)nnc1-c1ccncc1", "activity change, negative = inhibition": "inactive: 1.94%"},
      {"smiles": "CCOC(=O)c1c(C)n(C)c2ccc(OCC(O)CNC(CC)CO)cc12", "note": "(stereo unspecified)", "Potency": "inconclusive: 25.1 µM [inhibitor, single point]"},
      {"smiles": "CC(C)Oc1ccccc1/C=N/NC(=O)C1CCCC1", "activity change, negative = inhibition": "inactive: 14.9% [at 46.1 µM]"},
      {"smiles": "Cc1ccc(C)c(N2N=C(C(=O)Nc3ccccc3N3CCOCC3)CCC2=O)c1", "Potency": "inconclusive: 17.8 µM [inhibitor, single point]"},
      {"smiles": "CCN(C(=O)c1cnc(N2CCN(c3ncccn3)CC2)c2ccccc12)c1cccc(Cl)c1", "Potency": "inconclusive: 35.5 µM [inhibitor, single point]"},
      {"smiles": "Cc1sc(NC(=O)COc2ccccc2)c(C#N)c1C", "Potency": "inconclusive: 7.94 µM [activator, partial curve, poor fit]"},
      {"smiles": "CCC(C)(C)C(=O)Nc1ncc(S(=O)(=O)c2ccc([N+](=O)[O-])cc2)s1", "activity change, negative = inhibition": "inactive: 6.11% [at 46.1 µM]"},
      {"smiles": "CCN(CC)c1ccc(NC(=O)Nc2cccc3ccccc23)cc1", "Potency": "inconclusive: 17.8 µM [activator, single point]"},
      {"smiles": "CCCCN1C(=O)C2ON(c3ccccc3C)C(c3ccco3)C2C1=O", "note": "(stereo unspecified)", "Potency": "inconclusive: 29.1 µM [inhibitor, single point]"},
      {"smiles": "Cc1ccc2[nH]c3c(=O)n(CCC4=CCCCC4)cnc3c2c1", "Potency": "inconclusive: 1 µM [activator, full curve]"},
      {"smiles": "COc1ccc(-c2nc3ccc(NS(C)(=O)=O)cc3o2)cc1", "Potency": "inconclusive: 2 µM [activator, partial curve, poor fit]"},
      {"smiles": "Cc1cc(C)cc(Nc2ccc(C(=O)O)cc2N)c1", "activity change, negative = inhibition": "inactive: 12%"},
      {"smiles": "O=C(NCCn1cc(SCc2cccc(F)c2)c2ccccc21)c1cccc(C(F)(F)F)c1", "Potency": "inconclusive: 10 µM [inhibitor, partial curve, poor fit]"},
      {"smiles": "Cc1nn2c(NCCCn3ccnc3)cc(C(C)C)nc2c1-c1ccccc1", "Potency": "inconclusive: 10 µM [inhibitor, single point]"},
      {"smiles": "O=C(NNc1nc2cc3c(cc2s1)OCO3)c1cccc(F)c1", "Potency": "inconclusive: 18.4 µM [activator, single point]"},
      {"smiles": "O=C(COC(=O)C1CC1)Nc1ccc2c(c1)OCO2", "Potency": "inconclusive: 15.8 µM [activator, single point]"},
      {"smiles": "Cc1cccc(NC(=S)NC2CC3CCCC(C2)N3Cc2cccs2)c1C", "note": "(stereo unspecified)", "Potency": "inconclusive: 2.59 µM [inhibitor, partial curve]"},
      {"smiles": "CCn1cc(C(=O)Nc2sc(C)c(C)c2C(=O)OC)cn1", "Potency": "inconclusive: 32.6 µM [activator, single point]"},
      {"smiles": "Cc1cc(SCC(=O)c2cccs2)n2nc(C)c(-c3ccc(Cl)cc3)c2n1", "Potency": "inconclusive: 7.08 µM [inhibitor, partial curve, poor fit]"},
      {"smiles": "C=CCOc1cccc(C2C(C(=O)c3ccco3)=C(O)C(=O)N2Cc2ccncc2)c1", "note": "(stereo unspecified)", "Potency": "inactive"},
      {"smiles": "COc1ccc(OC)c(NC(=O)CCN2CCN(c3ccccc3F)CC2)c1", "activity change, negative = inhibition": "inactive: 7.18%"},
      {"smiles": "CCOC(=O)c1nc2cc3n(c(CC(C)C)c-2c1C)CC(C)=C3C", "Potency": "inconclusive: 29.1 µM [inhibitor, single point]"},
      {"smiles": "CCC(=O)N1CCc2cc(S(=O)(=O)CCC(=O)N3CCN(c4ccccc4Cl)CC3)ccc21", "activity change, negative = inhibition": "inactive: 3.26% [at 46.1 µM]"},
      {"smiles": "Cc1cc2occ(CC(=O)N(C)CC(=O)Nc3ccc(F)cc3)c2cc1C", "Potency": "inconclusive: 25.1 µM [inhibitor, single point]"},
      {"smiles": "N#CCSc1nc2c(c(=O)n1Cc1ccccc1)C1(CCCC1)Cc1ccccc1-2", "Potency": "inconclusive: 22.4 µM [inhibitor, single point]"},
      {"smiles": "CCC(=NCCc1ccccc1)c1c(O)n(C2CCCCC2)c(=O)[nH]c1=O", "Potency": "inconclusive: 4.61 µM [inhibitor, full curve, poor fit]"},
      {"smiles": "[O-]/[N+](=C\\c1ccc(F)cc1)c1ccccc1", "Potency": "inconclusive: 20.6 µM [activator, single point]"},
      {"smiles": "CCOc1ccc(-c2[nH]ncc2-c2csc(C)n2)c(O)c1", "Potency": "inconclusive: 0.708 µM [activator, partial curve, poor fit]"},
      {"smiles": "COC(=O)c1ccccc1NC(=O)Nc1ccc(C(=O)N2CCCC2)cc1", "Potency": "inconclusive: 18.3 µM [inhibitor, single point]"},
      {"smiles": "Cc1cc(C)c(-c2csc(NC(=O)C3=COCCO3)n2)c(C)c1", "Potency": "inconclusive: 25.1 µM [inhibitor, single point]"},
      {"smiles": "OC(CNCc1ccc(Cl)c(Cl)c1)c1ccccc1", "note": "(stereo unspecified)", "Potency": "inconclusive: 4.47 µM [inhibitor, full curve, poor fit]"},
      {"smiles": "O=S(=O)(CCN(CCS(=O)(=O)C(F)(F)F)CC1CCCO1)C(F)(F)F", "note": "(stereo unspecified)", "Potency": "inconclusive: 23.1 µM [inhibitor, partial curve, poor fit]"},
      {"smiles": "COc1ccc2[nH]c(C)c(C(=O)CN(C)C)c2c1", "activity change, negative = inhibition": "inactive: 2.1%"},
      {"smiles": "O=C(CSc1nnc(-c2ccncc2)o1)NC1C2CC3CC(C2)CC1C3", "note": "(stereo unspecified)", "Potency": "inconclusive: 29.1 µM [activator, partial curve, poor fit]"},
      {"smiles": "O=C(NCc1ccccc1)c1ccc(OC2CSC2)cc1", "Potency": "inconclusive: 0.0291 µM [activator, partial curve, poor fit]"},
      {"smiles": "CCCN1C2=NCCN2c2cc(C)c(C)cc21", "Potency": "inconclusive: 14.1 µM [inhibitor, single point]"},
      {"smiles": "C/C(CCC(=O)OC[C@@H]1O[C@H](C#Cc2ccccc2)C=C[C@@H]1Oc1ccc(C)cc1)=N/OC[C@@H](O)[C@H]1O[C@H]2OC(C)(C)O[C@H]2[C@@H]1O", "activity change, negative = inhibition": "inactive: -2.09% [at 14.2 µM]"},
      {"smiles": "CCOC(=O)C1CCCN(C(=O)c2cc(S(=O)(=O)N(C)C)ccc2N2CCCC2)C1", "note": "(stereo unspecified)", "activity change, negative = inhibition": "inactive: -12.5% [at 46.1 µM]"},
      {"smiles": "CCn1c(SCC(=O)N2CCCc3ccccc32)nnc1-c1ccoc1C", "Potency": "inconclusive: 12.6 µM [inhibitor, partial curve, poor fit]"},
      {"smiles": "N#Cc1ccccc1S(=O)(=O)N1CCN(S(=O)(=O)c2ccc(Br)c(C(=O)O)c2)CC1", "Potency": "inconclusive: 20 µM [activator, partial curve, poor fit]"},
      {"smiles": "O=C(O)c1ccccc1C(=O)c1ccc2c(c1)N(Cc1cccc(F)c1)C(=O)CO2", "Potency": "inconclusive: 35.5 µM [inhibitor, single point]"}
    ]}
  ]
}
